Test results reported in publication PMC10644579.
These are yes or no findings as the source states them, for the method shown. In cells and extracts the contact can be indirect. Some results given as binding are weak or reduced against the parent protein; the word gives no strength.

Target: T1, p-ATF2 (phosphorylated activating transcription factor 2) (human (endogenous in H1299)), P15336
T1 chain: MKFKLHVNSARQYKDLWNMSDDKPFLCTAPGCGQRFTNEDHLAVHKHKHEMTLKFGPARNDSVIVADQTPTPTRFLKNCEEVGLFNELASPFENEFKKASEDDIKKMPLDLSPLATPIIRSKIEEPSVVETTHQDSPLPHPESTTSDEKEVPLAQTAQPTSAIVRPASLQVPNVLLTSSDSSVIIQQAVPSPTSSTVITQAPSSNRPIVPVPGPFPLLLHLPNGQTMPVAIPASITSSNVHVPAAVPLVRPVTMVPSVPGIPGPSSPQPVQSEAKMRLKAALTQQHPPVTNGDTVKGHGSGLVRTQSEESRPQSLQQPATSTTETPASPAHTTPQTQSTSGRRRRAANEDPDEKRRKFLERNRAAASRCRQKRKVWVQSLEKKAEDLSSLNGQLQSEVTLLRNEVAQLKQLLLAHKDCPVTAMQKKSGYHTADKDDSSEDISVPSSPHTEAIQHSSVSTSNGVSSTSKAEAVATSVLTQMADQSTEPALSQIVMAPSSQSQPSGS
Assay: co-IP; nuclear proteins (25 ug) of ANKRD49-OE or LV5 (vector) H1299 cells, precleared with Protein A/G Agarose; rabbit anti-ATF2 or normal rabbit IgG, 4 °C 12 h; Protein A/G PLUS Agarose; bound proteins separated by SDS-PAGE
Settings: remark: other sources report otherwise

B1: p-c-Jun (phosphorylated c-Jun), P05412 1-331 (protein)
chain: MTAKMETTFYDDALNASFLPSESGPYGYSNPKILKQSMTLNLADPVGSLKPHLRAKNSDLLTSPDVGLLKLASPELERLIIQSSNGHITTTPTPTQFLCPKNVTDEQEGFAEGFVRALAELHSQNTLPSVTSAAQPVNGAGMVAPAVASVAGGSGSGGFSASLHSEPPVYANLSNFNPGALSSGGGAPSYGAAGLAFPAQPQQQQQPPHHLPQQMPVQHPRLQALKEEPQTVPEMPGETPPLSPIDMESQERIKAERKRMRNRIAASKCRKRKLERIARLEEKVKTLKAQNSELASTANMLREQVAQLKQKVMNHVNSGCQLMLTQQLQTF
modifications: here or on the partner: phosphorylated (p-c-Jun); sites not stated; phosphorylated (p-ATF2); sites not stated
binding: binds
